According to patent publication US5095003A, “Oxytocin and vasopressin antagonists” (Merck & Co., Inc., priority 1990, dated 1992):
pIC50: −log10 of the molar value. Where two headings read alike, the source gives them in different places. For at least one compound, name, drawing or mass did not settle the structure.

Chains of the proteins cited; added tags and fusions are not shown.
UniProt Q00788, whole entry: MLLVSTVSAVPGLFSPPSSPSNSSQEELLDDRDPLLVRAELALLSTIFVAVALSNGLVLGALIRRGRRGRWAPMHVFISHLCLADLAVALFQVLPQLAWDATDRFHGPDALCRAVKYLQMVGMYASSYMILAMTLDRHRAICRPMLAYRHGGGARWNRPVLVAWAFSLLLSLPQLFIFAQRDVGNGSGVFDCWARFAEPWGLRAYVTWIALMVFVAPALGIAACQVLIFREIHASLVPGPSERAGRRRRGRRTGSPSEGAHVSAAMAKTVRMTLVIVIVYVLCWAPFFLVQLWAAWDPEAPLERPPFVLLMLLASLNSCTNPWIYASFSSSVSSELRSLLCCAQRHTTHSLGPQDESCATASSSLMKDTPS
UniProt P30560, whole entry: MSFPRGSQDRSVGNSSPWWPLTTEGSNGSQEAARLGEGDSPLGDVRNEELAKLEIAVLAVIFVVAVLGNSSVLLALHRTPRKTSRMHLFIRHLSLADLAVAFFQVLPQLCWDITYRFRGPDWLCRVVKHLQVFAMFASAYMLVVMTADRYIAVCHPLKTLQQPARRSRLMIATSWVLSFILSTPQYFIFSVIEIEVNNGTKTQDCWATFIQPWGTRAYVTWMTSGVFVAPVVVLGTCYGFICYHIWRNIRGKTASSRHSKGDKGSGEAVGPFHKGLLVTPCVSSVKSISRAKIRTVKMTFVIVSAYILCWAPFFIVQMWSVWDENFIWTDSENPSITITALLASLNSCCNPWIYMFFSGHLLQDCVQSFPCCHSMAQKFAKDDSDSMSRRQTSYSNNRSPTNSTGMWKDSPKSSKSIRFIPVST

Key:
[1] = biological target: T1, V2 vasopressin receptor (AVP-stimulated adenylate cyclase) (Rattus norvegicus, UniProt Q00788); assay: Vasopressin-stimulated adenylate cyclase in kidney medulla; format: biochemical; details: read-out: IC50 AVP-stimulated Ad. Cyclase Kidney (V2) (converted)
T1 construct: Vasopressin stimulated adenylate cyclase in kidney medulla, therefore, is used as a functional assay; from tissue

[2] = biological target: T2, V1 (pressor) vasopressin receptor (Rattus norvegicus, UniProt P30560); assay: [3H]Arginine vasopressin binding assay, rat liver membranes; details: mean ± standard error, read-out: IC50 3H-Arg8-Vasopressin Binding Liver (V1)
T2 construct: crude membrane preparation of rat liver (V1 receptor) or kidney medulla (V2 receptor); from tissue; host or cells: rat liver, crude membrane preparation

[3] = biological target: T3, V2 (antidiuretic) vasopressin receptor (Rattus norvegicus, UniProt Q00788); assay: [3H]Arginine vasopressin binding assay, rat kidney medulla membranes; details: mean ± standard error, read-out: IC50 3H-Arg8-Vasopressin Binding Kidney (V2)
T3 construct: crude membrane preparation of rat liver (V1 receptor) or kidney medulla (V2 receptor); from tissue; host or cells: rat kidney medulla, crude membrane preparation

[4] = kidney medulla, exact MW not known

SMILES | IC50 [1, 4] [µM] | IC50 ([1]; molar IC50 based on MW of 700) [µM] | pIC50 [2] | pIC50 [3] | IC50 ([1]; kidney medulla, mean ± standard error) [µM]
CC(C)C[C@H]1C(=O)N2NCCC[C@@H]2C(=O)N2NCCC[C@H]2C(=O)N(C)[C@H](Cc2ccccc2)C(=O)N2CCC[C@H]2C(=O)N[C@H](Cc2ccccc2)C(=O)N1O [Component C] | 12.1 | 13 |  |  | 
CC[C@@H](C)[C@H]1NC(=O)[C@@H]2CCCN2C(=O)[C@@H](Cc2ccccc2)N(C)C(=O)[C@@H]2CCCNN2C(=O)[C@H]2CCCNN2C(=O)[C@H](CC(C)C)N(O)C1=O [Component D] | 19.3 | 20 |  |  | 
CC(C)C[C@@H]1C(=O)N2CCC[C@H]2C(=O)N[C@H](C(C)C)C(=O)N(O)[C@@H](CC(C)C)C(=O)N2NCCC[C@@H]2C(=O)N2NCCC[C@H]2C(=O)N1C [Component E] |  |  | 4.10 | 4.23 | 120
